According to publication doi:10.1101/2024.03.15.585069:
These are yes or no findings as the source states them, for the method shown. In cells and extracts the contact can be indirect. Some entries that bind do so weakly or less than the wild type.

T1: nEYFP-CP2 (Arabidopsis thaliana) (UniProt P0DO23)
T1 sequence: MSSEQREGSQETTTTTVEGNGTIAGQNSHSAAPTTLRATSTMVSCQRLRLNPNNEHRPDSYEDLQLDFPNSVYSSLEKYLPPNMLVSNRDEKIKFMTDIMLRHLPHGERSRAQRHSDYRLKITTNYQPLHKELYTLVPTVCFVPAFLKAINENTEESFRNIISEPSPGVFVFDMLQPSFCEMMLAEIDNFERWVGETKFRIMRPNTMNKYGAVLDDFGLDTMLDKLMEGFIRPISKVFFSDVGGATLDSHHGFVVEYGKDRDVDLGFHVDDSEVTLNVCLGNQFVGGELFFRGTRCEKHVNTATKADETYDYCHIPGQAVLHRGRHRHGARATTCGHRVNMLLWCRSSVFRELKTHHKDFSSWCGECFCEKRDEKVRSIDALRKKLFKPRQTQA

T2: nEYFP-ICU11 (Arabidopsis thaliana) (UniProt Q3ED68)
T2 sequence: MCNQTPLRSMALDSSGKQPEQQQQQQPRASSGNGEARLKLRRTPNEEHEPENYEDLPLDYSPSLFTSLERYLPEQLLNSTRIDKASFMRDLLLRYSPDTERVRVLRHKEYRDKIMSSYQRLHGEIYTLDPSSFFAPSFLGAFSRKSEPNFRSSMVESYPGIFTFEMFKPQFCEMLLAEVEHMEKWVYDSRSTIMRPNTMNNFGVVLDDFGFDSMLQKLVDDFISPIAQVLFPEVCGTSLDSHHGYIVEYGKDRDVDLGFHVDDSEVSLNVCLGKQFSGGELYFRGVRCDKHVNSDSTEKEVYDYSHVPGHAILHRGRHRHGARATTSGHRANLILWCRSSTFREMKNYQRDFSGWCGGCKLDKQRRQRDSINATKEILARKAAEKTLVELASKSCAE

B1: cEYFP-SWN (protein, UniProt Q9ZSM8 1-856)
chain: MVTDDSNSSGRIKSHVDDDDDGEEEEDRLEGLENRLSELKRKIQGERVRSIKEKFEANRKKVDAHVSPFSSAASSRATAEDNGNSNMLSSRMRMPLCKLNGFSHGVGDRDYVPTKDVISASVKLPIAERIPPYTTWIFLDRNQRMAEDQSVVGRRQIYYEQHGGETLICSDSEEEPEPEEEKREFSEGEDSIIWLIGQEYGMGEEVQDALCQLLSVDASDILERYNELKLKDKQNTEEFSNSGFKLGISLEKGLGAALDSFDNLFCRRCLVFDCRLHGCSQPLISASEKQPYWSDYEGDRKPCSKHCYLQLKAVREVPETCSNFASKAEEKASEEECSKAVSSDVPHAAASGVSLQVEKTDIGIKNVDSSSGVEQEHGIRGKREVPILKDSNDLPNLSNKKQKTAASDTKMSFVNSVPSLDQALDSTKGDQGGTTDNKVNRDSEADAKEVGEPIPDNSVHDGGSSICQPHHGSGNGAIIIAEMSETSRPSTEWNPIEKDLYLKGVEIFGRNSCLIARNLLSGLKTCLDVSNYMRENEVSVFRRSSTPNLLLDDGRTDPGNDNDEVPPRTRLFRRKGKTRKLKYSTKSAGHPSVWKRIAGGKNQSCKQYTPCGCLSMCGKDCPCLTNETCCEKYCGCSKSCKNRFRGCHCAKSQCRSRQCPCFAAGRECDPDVCRNCWVSCGDGSLGEAPRRGEGQCGNMRLLLRQQQRILLGKSDVAGWGAFLKNSVSKNEYLGEYTGELISHHEADKRGKIYDRANSSFLFDLNDQYVLDAQRKGDKLKFANHSAKPNCYAKVMFVAGDHRVGIFANERIEASEELFYDYRYGPDQAPVWARKPEGSKKDDSAITHRRARKHQSH
B2: cEYFP-CLF (protein, UniProt P93831 1-902)
chain: MASEASPSSSATRSEPPKDSPAEERGPASKEVSEVIESLKKKLAADRCISIKKRIDENKKNLFAITQSFMRSSMERGGSCKDGSDLLVKRQRDSPGMKSGIDESNNNRYVEDGPASSGMVQGSSVPVKISLRPIKMPDIKRLSPYTTWVFLDRNQRMTEDQSVVGRRRIYYDQTGGEALICSDSEEEAIDDEEEKRDFLEPEDYIIRMTLEQLGLSDSVLAELASFLSRSTSEIKARHGVLMKEKEVSESGDNQAESSLLNKDMEGALDSFDNLFCRRCLVFDCRLHGCSQDLIFPAEKPAPWCPPVDENLTCGANCYKTLLKSGRFPGYGTIEGKTGTSSDGAGTKTTPTKFSSKLNGRKPKTFPSESASSNEKCALETSDSENGLQQDTNSDKVSSSPKVKGSGRRVGRKRNKNRVAERVPRKTQKRQKKTEASDSDSIASGSCSPSDAKHKDNEDATSSSQKHVKSGNSGKSRKNGTPAEVSNNSVKDDVPVCQSNEVASELDAPGSDESLRKEEFMGETVSRGRLATNKLWRPLEKSLFDKGVEIFGMNSCLIARNLLSGFKSCWEVFQYMTCSENKASFFGGDGLNPDGSSKFDINGNMVNNQVRRRSRFLRRRGKVRRLKYTWKSAAYHSIRKRITEKKDQPCRQFNPCNCKIACGKECPCLLNGTCCEKYCGCPKSCKNRFRGCHCAKSQCRSRQCPCFAADRECDPDVCRNCWVIGGDGSLGVPSQRGDNYECRNMKLLLKQQQRVLLGISDVSGWGAFLKNSVSKHEYLGEYTGELISHKEADKRGKIYDRENCSFLFNLNDQFVLDAYRKGDKLKFANHSPEPNCYAKVIMVAGDHRVGIFAKERILAGEELFYDYRYEPDRAPAWAKKPEAPGSKKDENVTPSVGRPKKLA
B3: cEYFP-TRB1 (protein, UniProt Q8VWK4 1-300)
chain: MGAPKQKWTQEEESALKSGVIKHGPGKWRTILKDPEFSGVLYLRSNVDLKDKWRNMSVMANGWGSREKSRLAVKRTFSLPKQEENSLALTNSLQSDEENVDATSGLQVSSNPPPRRPNVRLDSLIMEAIATLKEPGGCNKTTIGAYIEDQYHAPPDFKRLLSTKLKYLTSCGKLVKVKRKYRIPNSTPLSSHRRKGLGVFGGKQRTSSLPSPKTDIDEVNFQTRSQIDTEIARMKSMNVHEAAAVAAQAVAEAEAAMAEAEEAAKEAEAAEAEAEAAQAFAEEASKTLKGRNICKMMIRA
B4: cEYFP-TRB3 (protein, UniProt Q9M2X3 1-295)
chain: MGAPKLKWTPEEETALKAGVLKHGTGKWRTILSDPVYSTILKSRSNVDLKDKWRNISVTALWGSRKKAKLALKRTPLSGSRQDDNATAITIVSLANGDVGGQQIDAPSPPAGSCEPPRPSTSVDKIILEAITSLKRPFGPDGKSILMYIEENFKMQPDMKRLVTSRLKYLTNVGTLVKKKHKYRISQNYMAEGEGQRSPQLLLEGNKENTPKPEENGVKNLTKSQVGGEVMIMGMTEKEAAAAAARAVAEAEFAMAEAEEAAREADKAEAEAEAAHIFAKAAMKAVKYRMHSQTR
B5: cEYFP-CP2 (protein, UniProt P0DO23 1-394)
chain: T1 sequence

target: T1, nEYFP-CP2 (Arabidopsis thaliana); test: split reporter

| Binder | binding |
| --- | --- |
| B1 | binds |
| B2 | binds |

target: T2, nEYFP-ICU11 (Arabidopsis thaliana); test: split reporter

| Binder | binding |
| --- | --- |
| B1 | binds |
| B3 | binds |
| B4 | binds |
| B5 | no binding |
